According to US11891371B2, “Piperonylic acid derivative and preparation and application thereof” (SHENYANG SINOCHEM AGROCHEMICALS R&D CO., LTD., priority 2017, dated 2024):
Some entries share one result that the patent states for a list of compounds.

Test system: cucumber downy mildew
Assay: Determination of fungicidal activity against cucumber downy mildew (cucumber seedlings, protective spray, visual control effect)
Type: in vivo
Details: 400 mg/L; inoculated 24 hours after treatment; visual method

O=C(Nc1cccc(C(=O)Nc2c(Br)cc(C(F)(C(F)(F)F)C(F)(F)F)cc2Br)c1F)c1ccc2c(c1)OC(F)(F)O2 [Compound I-8]
control effects against cucumber downy mildew: over 90%

CN(C(=O)c1ccc2c(c1)OC(F)(F)O2)c1cccc(C(=O)Nc2c(Br)cc(C(F)(C(F)(F)F)C(F)(F)F)cc2Br)c1F [Compound I-51, N-(2,6-dibromide-4-heptafluoroisopropylphenyl)-2-fluoro-3-(N-methyl-2,2-difluoro-1,3-benzodioxole-5-carboxamido)benzamide]
control effects against cucumber downy mildew: over 90%
